According to US20260070890A1, “MODULATORS OF TAU LIQUID-LIQUID PHASE SEPARATION AND METHODS THEREOF” (JAWAHARLAL NEHRU CENTRE FOR ADVANCED SCIENTIFIC RESEARCH, priority 2023, published 2026):
Some entries share one result that the patent states for a list of compounds.

System: SH-SY5Y cells
Assay: MTT cell viability assay
Type: cell-based
Conditions: 10 to 100 μM, 24 h

Compound | concentration up to which non-toxic / compatible (cell viability, MTT)
O=C1N[C@@H](Cc2ccc(O)cc2)C(=O)N[C@H]1CCCCN1C(=O)c2cccc3c(N(Cc4ccccn4)Cc4ccccn4)ccc(c23)C1=O [Compound 1b, 6-(bis(pyridin-2-ylmethyl)amino)-2-(4-((2S,5S)-5-(4-hydroxybenzyl)-3,6-dioxopiperazin-2-yl)butyl)-1H-benzo[de]isoquinoline-1,3(2H)-dione] | up to 50 μM
O=C1N[C@@H](Cc2c[nH]c3ccccc23)C(=O)N[C@H]1CCCCN1C(=O)c2cccc3c(N(Cc4ccccn4)Cc4ccccn4)ccc(c23)C1=O [Compound 1c, 2-(4-((2S,5S)-5-((1H-indol-3-yl)methyl)-3,6-dioxopiperazin-2-yl)butyl)-6-(bis(pyridin-2-ylmethyl)amino)-1H-benzo[de]isoquinoline-1,3(2H)-dione] | up to 50 μM
